Source: patent US7081485B2, “Non-volatile dental compositions containing multifunctional acrylate compounds and lacking an oxygen-inhibited layer” (Bisco, Inc., priority 2002, dated 2006)

What was measured:
[1] = Pencil hardness of photoinitiator resins coated on composite disks; details: 30 seconds at 300 mW/cm^2
[2] = Percent degree of conversion of hexafunctional acrylate resin with photoinitiators; details: for DC, %: 500 mW/cm^2; for DC (std. dev.): TPO at 3%, triplicate
[3] = Initiator 3%, EDMAB 0%, 10 sec (no air)
[4] = Initiator 0.2%, EDMAB 1%, 5 sec
[5] = Initiator 0.2%, EDMAB 1%, 10 sec (no air)
[6] = Initiator 0.2%, EDMAB 1%, 10 sec
[7] = Initiator 0.2%, EDMAB 1%, 30 sec

SMILES | Pencil hardness ([1]; Initiator 3%, EDMAB 0%) [H] | DC, % ([2]; Initiator 3%, EDMAB 0%, 5 sec) [%] | DC, % [2, 3] [%] | DC, % ([2]; Initiator 3%, EDMAB 0%, 10 sec) [%] | DC, % ([2]; Initiator 3%, EDMAB 0%, 30 sec) [%] | DC, % [2, 4] [%] | DC, % [2, 5] [%] | DC, % [2, 6] [%] | DC, % [2, 7] [%] | further results
CC12CCC(C(=O)C1=O)C2(C)C (stereo not shown) [CQ, camphorquinone] | – | – | – | – | – | – | – | – | – | Pencil hardness ([1]; Initiator 1%, EDMAB 1%): 1H; Pencil hardness ([1]; Initiator 3%, EDMAB 3%): >5H; DC, % ([2]; Initiator 1%, EDMAB 1%, 5 sec): 24%; DC, % ([2]; Initiator 1%, EDMAB 1%, 10 sec (no air)): 47%; DC, % ([2]; Initiator 1%, EDMAB 1%, 10 sec): 27%; DC, % ([2]; Initiator 1%, EDMAB 1%, 30 sec): 30%; DC, % ([2]; Initiator 3%, EDMAB 3%, 5 sec): 43%; DC, % ([2]; Initiator 3%, EDMAB 3%, 10 sec (no air)): 65%; DC, % ([2]; Initiator 3%, EDMAB 3%, 10 sec): 50%; DC, % ([2]; Initiator 3%, EDMAB 3%, 30 sec): 58%
Cc1cc(C)c(C(=O)P(=O)(C(=O)c2c(C)cc(C)cc2C)c2ccccc2)c(C)c1 [Composition 819, bis(2,4,6-trimethylbenzoyl)-phenylphosphineoxide] | >5 | 49 | 65 | 55 | 58 | – | – | – | – | Pencil hardness ([1]; Initiator 1.5%, EDMAB 0%): 4H; DC, % ([2]; Initiator 1.5%, EDMAB 0%, 5 sec): 44%; DC, % ([2]; Initiator 1.5%, EDMAB 0%, 10 sec (no air)): 57%; DC, % ([2]; Initiator 1.5%, EDMAB 0%, 10 sec): 47%; DC, % ([2]; Initiator 1.5%, EDMAB 0%, 30 sec): 47%
CCCCOc1ccc2cc3cc(I)c(=O)c(I)c-3oc2c1 [HNu, 5,7-diiodo-3-butoxy-6-fluorone] | – | – | – | – | – | 0 | 23 | 0 | 0 | –
O=C1C(=O)c2ccccc2-c2ccccc21 [PAQ, phenanthrenequinone] | – | – | – | – | – | 0 | 33 | 0 | 0 | –
Cc1cc(C)c(C(=O)P(=O)(c2ccccc2)c2ccccc2)c(C)c1 [TPO, 2,4,6-trimethylbenzoyl-diphenylphosphinate] | 5 | 29 | 53 | 52 | 52 | – | – | – | – | Pencil hardness ([1]; Initiator 2%, EDMAB 0%): 4H; DC, % ([2]; Initiator 2%, EDMAB 0%, 5 sec): 30%; DC, % ([2]; Initiator 2%, EDMAB 0%, 10 sec (no air)): 64%; DC, % ([2]; Initiator 2%, EDMAB 0%, 10 sec): 39%; DC, % ([2]; Initiator 2%, EDMAB 0%, 30 sec): 39%; DC (std. dev.) ([2]; 10 seconds, air absent): 57.4% (1.3%); DC (std. dev.) ([2]; 10 seconds, air present): 46.9% (3.0%); DC (std. dev.) ([2]; 30 seconds, air present): 51.6% (4.3%)
CCOP(=O)(C(=O)c1c(C)cc(C)cc1C)c1ccccc1 (stereo not shown) [TPOL, ethyl-2,4,6-trimethylbenzoyl-phenylphosphinate] | 4 | 29 | 56 | 38 | 57 | – | – | – | – | –
